The target of test [1] is T1, 3X FLAG-Swi6 L315E (recombinant) (S. pombe), P40381.
T1 chain: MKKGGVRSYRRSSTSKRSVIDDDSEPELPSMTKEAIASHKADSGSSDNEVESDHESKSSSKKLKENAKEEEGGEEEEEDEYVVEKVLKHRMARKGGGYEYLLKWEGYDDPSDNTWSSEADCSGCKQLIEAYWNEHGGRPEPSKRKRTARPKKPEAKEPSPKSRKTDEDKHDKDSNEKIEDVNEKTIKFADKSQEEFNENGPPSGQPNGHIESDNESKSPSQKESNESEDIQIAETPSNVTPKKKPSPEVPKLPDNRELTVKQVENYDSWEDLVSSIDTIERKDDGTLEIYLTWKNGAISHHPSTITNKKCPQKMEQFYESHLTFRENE
Briefly: pull-down; recombinant 3X FLAG-Swi6 immobilised on FLAG M2 beads, three concentrations of recombinant MBP-Epe1; 20 mM HEPES pH 7.5, 150 mM NaCl, 5 mM MgCl2, 10% glycerol, 0.25% Triton X-100, 1 mM DTT; 2 h at 4 °C; blots with anti-MBP and M2 Flag antibodies; both purified. The settings on record: remark: other sources report otherwise.

In the next test the target is T2, Epe1-V5 (S. pombe) (UniProt O94603).
T2 sequence: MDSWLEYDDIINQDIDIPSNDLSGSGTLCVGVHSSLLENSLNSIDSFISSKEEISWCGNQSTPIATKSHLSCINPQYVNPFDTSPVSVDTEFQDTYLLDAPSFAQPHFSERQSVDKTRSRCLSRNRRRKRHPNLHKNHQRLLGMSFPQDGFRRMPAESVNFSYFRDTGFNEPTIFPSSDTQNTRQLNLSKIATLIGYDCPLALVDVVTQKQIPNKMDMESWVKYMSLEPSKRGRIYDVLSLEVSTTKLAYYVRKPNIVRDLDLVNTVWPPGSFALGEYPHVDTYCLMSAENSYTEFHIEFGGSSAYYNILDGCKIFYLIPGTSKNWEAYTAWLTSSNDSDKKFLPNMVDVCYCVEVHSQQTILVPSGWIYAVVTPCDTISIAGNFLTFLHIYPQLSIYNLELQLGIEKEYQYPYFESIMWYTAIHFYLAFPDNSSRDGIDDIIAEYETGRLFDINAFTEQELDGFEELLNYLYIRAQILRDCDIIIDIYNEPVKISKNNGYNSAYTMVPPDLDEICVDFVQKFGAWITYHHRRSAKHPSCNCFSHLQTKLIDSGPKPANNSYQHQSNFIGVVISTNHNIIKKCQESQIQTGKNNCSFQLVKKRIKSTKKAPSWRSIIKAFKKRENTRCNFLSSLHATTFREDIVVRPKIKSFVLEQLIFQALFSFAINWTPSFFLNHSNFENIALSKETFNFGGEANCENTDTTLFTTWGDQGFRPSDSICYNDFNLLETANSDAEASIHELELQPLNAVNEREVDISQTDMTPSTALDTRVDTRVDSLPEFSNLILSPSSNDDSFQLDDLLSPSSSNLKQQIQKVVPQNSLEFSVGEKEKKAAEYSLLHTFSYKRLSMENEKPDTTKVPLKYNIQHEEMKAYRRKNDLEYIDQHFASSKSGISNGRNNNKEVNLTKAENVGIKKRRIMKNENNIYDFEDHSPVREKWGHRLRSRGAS
Put plainly: co-IP; V5 antibody cross-linked to Protein G magnetic beads, S. pombe cell lysates (30 mM HEPES pH 7.5, 100 mM NaCl, 0.25% Triton X-100, 5 mM MgCl2, 1 mM DTT), 3 h at 4 °C; Epe1 detected with a V5 antibody, Swi6 with a primary antibody.

The target of test [2] is Swi6-L315E (recombinant, full-length) (S. pombe) (UniProt P40381). Put plainly: mass photometry; full-length recombinant Swi6 at 2.5-20 nM in 20 mM HEPES pH 7.5, 100 mM KCl; apparent dimerization constants (Kdim) from the relative abundance of monomer and dimer; dimer to monomers; both purified.

No constants are given. Whether binding was seen depends on the method and setting. For part of these data: In cells and extracts the contact can be indirect. Some results given as binding are weak or reduced against the parent protein; the word gives no strength. For part of these data: Tags and fused reporters may be left off the sequences shown.

B1: MBP-Epe1, O94603 1-948 (protein)
chain: MDSWLEYDDIINQDIDIPSNDLSGSGTLCVGVHSSLLENSLNSIDSFISSKEEISWCGNQSTPIATKSHLSCINPQYVNPFDTSPVSVDTEFQDTYLLDAPSFAQPHFSERQSVDKTRSRCLSRNRRRKRHPNLHKNHQRLLGMSFPQDGFRRMPAESVNFSYFRDTGFNEPTIFPSSDTQNTRQLNLSKIATLIGYDCPLALVDVVTQKQIPNKMDMESWVKYMSLEPSKRGRIYDVLSLEVSTTKLAYYVRKPNIVRDLDLVNTVWPPGSFALGEYPHVDTYCLMSAENSYTEFHIEFGGSSAYYNILDGCKIFYLIPGTSKNWEAYTAWLTSSNDSDKKFLPNMVDVCYCVEVHSQQTILVPSGWIYAVVTPCDTISIAGNFLTFLHIYPQLSIYNLELQLGIEKEYQYPYFESIMWYTAIHFYLAFPDNSSRDGIDDIIAEYETGRLFDINAFTEQELDGFEELLNYLYIRAQILRDCDIIIDIYNEPVKISKNNGYNSAYTMVPPDLDEICVDFVQKFGAWITYHHRRSAKHPSCNCFSHLQTKLIDSGPKPANNSYQHQSNFIGVVISTNHNIIKKCQESQIQTGKNNCSFQLVKKRIKSTKKAPSWRSIIKAFKKRENTRCNFLSSLHATTFREDIVVRPKIKSFVLEQLIFQALFSFAINWTPSFFLNHSNFENIALSKETFNFGGEANCENTDTTLFTTWGDQGFRPSDSICYNDFNLLETANSDAEASIHELELQPLNAVNEREVDISQTDMTPSTALDTRVDTRVDSLPEFSNLILSPSSNDDSFQLDDLLSPSSSNLKQQIQKVVPQNSLEFSVGEKEKKAAEYSLLHTFSYKRLSMENEKPDTTKVPLKYNIQHEEMKAYRRKNDLEYIDQHFASSKSGISNGRNNNKEVNLTKAENVGIKKRRIMKNENNIYDFEDHSPVREKWGHRLRSRGAS
For the molecule B1, in test [1], the binding result is listed as “no binding”.

B2: Swi6-WT (protein, UniProt P40381 1-328)
chain: MKKGGVRSYRRSSTSKRSVIDDDSEPELPSMTKEAIASHKADSGSSDNEVESDHESKSSSKKLKENAKEEEGGEEEEEDEYVVEKVLKHRMARKGGGYEYLLKWEGYDDPSDNTWSSEADCSGCKQLIEAYWNEHGGRPEPSKRKRTARPKKPEAKEPSPKSRKTDEDKHDKDSNEKIEDVNEKTIKFADKSQEEFNENGPPSGQPNGHIESDNESKSPSQKESNESEDIQIAETPSNVTPKKKPSPEVPKLPDNRELTVKQVENYDSWEDLVSSIDTIERKDDGTLEIYLTWKNGAISHHPSTITNKKCPQKMLQFYESHLTFRENE
In the case of B2, the binding entry in the test with Epe1-V5 (S. pombe) is recorded as “binds”.

B3: Swi6-L315E (recombinant, full-length) (protein, UniProt P40381 1-328)
chain: MKKGGVRSYRRSSTSKRSVIDDDSEPELPSMTKEAIASHKADSGSSDNEVESDHESKSSSKKLKENAKEEEGGEEEEEDEYVVEKVLKHRMARKGGGYEYLLKWEGYDDPSDNTWSSEADCSGCKQLIEAYWNEHGGRPEPSKRKRTARPKKPEAKEPSPKSRKTDEDKHDKDSNEKIEDVNEKTIKFADKSQEEFNENGPPSGQPNGHIESDNESKSPSQKESNESEDIQIAETPSNVTPKKKPSPEVPKLPDNRELTVKQVENYDSWEDLVSSIDTIERKDDGTLEIYLTWKNGAISHHPSTITNKKCPQKMEQFYESHLTFRENE
With B3, the binding result in test [2] was “no binding (tested: 2.5–20 nM)”.

These data come from article PMC11272775, “Epigenetic memory is governed by an effector recruitment specificity toggle in Heterochromatin Protein 1” (Nature Communications, 2024).
